{"source": "patent US20090131304A1", "about": "(Novartis Vaccines and Diagnostics, Inc., priority 2005, published 2009)", "experiment": "peptide synthesis", "settings": "late stage modification step", "data": [{"substance": "Desmethyl-vancomycin-Gly-p-n-Octyloxybenzyl", "values": [{"measurement": "step yield", "result": 40, "unit": "%"}]}]}
